In patent US10092574B2, “Inhibitors of polynucleotide repeat-associated RNA foci and uses thereof” (VALORISATION-RECHERCHE, LIMITED PARTNERSHIP, priority 2013, dated 2018):
Some entries share one result that the patent states for a list of compounds.

Tested on: Normal or DM1 myoblasts
Assay: Cytotoxicity assay (Hoescht 33342 / propidium iodide, High Content Screening microscope)
Type: cell-based, human
Settings: normal (M908) and DM1 myoblasts, 7 days, concentrations lower than 60 μM (FIGS. 14A-D)
Protocol: The cellular toxicity of compounds 15 and 32, and their analogs was also measured using a validated cytotoxicity assay. Normal or DM1 myoblasts were treated with 20 μM of compound or DMSO. The ratio of viable cells was measured with a High Content Screening microscope in live cells treated with Hoescht 33342 (labels all cells) and propidium iodide (labels dead cells). The total number of cells was counted and the number of dead cells was subtracted to obtain the number of viable cells, which is presented as a ratio (drug-treated versus DMSO-treated cells). The percentage of dead cells was also measured using propidium iodide.
The cellular toxicity of the compounds was also measured in a dose-response assay. In this assay, normal (M908) and patient (DM1) myoblasts were treated for 7 days with compound 32 or 196 at concentrations varying from 5 to 60 μM. Cell number and cell death was quantified by High Content Screening microscope, as specified above. […] Indeed, the ratio of viable cells at 20 μM of compound 15 is 0.22 (FIG. 10), while for compound 196, an analogue of compound 15, it is above 1 at the same concentration (FIG. 14C).

Structure (SMILES)	cell death
CCCc1c(C(=O)N(Cc2ccccc2)Cc2cccs2)cnn1-c1ccccc1 [Compound 32]	below 10%
CCCN(CCC)S(=O)(=O)c1ccc(NC(=O)c2cnn(-c3ccccc3)c2C)cc1 [Compound 196, N-(4-(N,N-Dipropylsulfamoyl)phenyl)-5-methyl-1-phenyl-1H-pyrazole-4-carboxamide]	below 10%
